Laboratory results: patent US8044025B2 (Research Development Foundation, priority 2000, dated 2011)
Some results were stated once for a whole list of compounds, not compound by compound.

Experiment: Nocturnal food intake after icv peptide
Assay type: in vivo, rat
Settings: 1 μg icv, rats
Excerpt: To identify cell groups responsive to central Ucn II administration, and to evaluate the extent to which these may conform to sites of CRF-R2 expression, the induced expression of the immediate-early gene product, Fos, in response; to icv peptide administration was monitored. Adult male Sprague-Dawley rats (250-300 g at start of experiments) and C57 BL/6 mice (25-40 g) were housed in a colony room on a 12:12 light:dark cycle, and with free access to food and water prior to experimentation. For intracerebroventricular (icv) injections, rats were anesthetized with ketamine/xylazine/acepromazine and stereotaxically implanted with a 26 ga guide cannula terminating in the lateral ventricle. For intravenous (iv) administration of peptides, animals were fitted with indwelling jugular venous catheters. […]
To monitor induced patterns of Fos expression, rats were injected at 10 am, either icv or iv with synthetic Ucn II (1, 5 or 10 μg/animal in 2 μl saline for icv injections or 200 μl for iv administration), or vehicle alone, and perfused two hours later. […] Consumption was then measured hourly for 6 hrs and at 12 hrs. Data were analyzed using repeated measures analysis of variance (ANOVA), with the Bonferoni correction for multiple comparisons applied as warranted. […]

For “CRF: 41-amino acid peptide initiating pituitary-adrenal responses to stress; R1-selective agonist (SEEPPISLDLTFHLLREVLEMARAEQLAQQAHSNRKLMEII; Corticoliberin; UniProt P06850 154-194, looked up)”, the “Time post-injection at which food intake is significantly less than saline controls” value was 4 to 5 h.
